PubChem BioAssay AID504793 – Drosophila RNAi Screening Center – 2011
Assay: 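Genes required for cells to halt at G2/M after double-strand DNA breaks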 (primary screen). Cells: Drosophila S2R+ cells. Reagent: long dsRNA against Drosophila genes, about 0.25 µg dsRNA per well. Time to read-out: 4 days of dsRNA, then 4 hours of drug before read-out. Challenge: doxorubicin 0.5 µM for 4 hours to cause double-strand breaks, in cells also given a low, harmless dose of dsRNA against nbs to sensitise the assay. Read-out: 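Mitotic index as the number of phospho-histone H3-positive cells in each well following doxorubicin, given as raw counts without normalisation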. Reading the numbers: mitotic cells: higher = more cells in mitosis, weaker G2 arrest. Rule for the call: 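Genes are called active only when high mitotic counts were reproduced with independent dsRNAs and mitosis was checked for delay without damage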. Meaning of the calls: active = confirmed in follow-up tests; inactive = not confirmed.
The screen tested about 23,000 reagents; below is a random part of those with a known target gene and a result. Over the whole deposit, 62 (0.27%) got an active call. 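Calls come from follow-up tests whose scores are not deposited, so confirmed genes may have low counts here; counts are not normalised per plate.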 The raw values are shown without normalisation. Entries without a mark were called inactive. A plus sign joins genes that one reagent is predicted to hit.

The opening 4 entries, to show the layout:
chinmo [DRSC00485] | mitotic cells, replicate 1: 3
chinmo [DRSC00509] | mitotic cells, replicate 1: 4
chinmo [DRSC22413] | mitotic cells, replicate 1: 14
chinmo [DRSC28547] | mitotic cells, replicate 1: 1

Main list, from the first entry:
chinmo [DRSC00485] | mitotic cells, replicate 1: 3
chinmo [DRSC00509] | mitotic cells, replicate 1: 4
chinmo [DRSC22413] | mitotic cells, replicate 1: 14
chinmo [DRSC28547] | mitotic cells, replicate 1: 1
Dh31-R [DRSC06669] | mitotic cells, replicate 1: 2
Dh31-R [DRSC23417] | mitotic cells, replicate 1: 7
CG13806 [DRSC08341] | mitotic cells, replicate 1: 3
CG5641 [DRSC15852] | mitotic cells, replicate 1: 8
His-Psi:CR31616 + His-Psi:CR31615 [DRSC03760] | mitotic cells, replicate 1: 8
CG4949 [DRSC19926] | mitotic cells, replicate 1: 16
CG32687 [DRSC18210] | mitotic cells, replicate 1: 17
CG32687 [DRSC18237] | mitotic cells, replicate 1: 9
Cdc27 [DRSC11112] | mitotic cells, replicate 1: 298
Cdc27 [DRSC23438] | mitotic cells, replicate 1: 164
kat-60L1 [DRSC12184] | mitotic cells, replicate 1: 3
kat-60L1 [DRSC25414] | mitotic cells, replicate 1: 5
tun [DRSC05592] | mitotic cells, replicate 1: 7
tun [DRSC07127] | mitotic cells, replicate 1: 4
ppan [DRSC17030] | mitotic cells, replicate 1: 4
ppan [DRSC28476] | mitotic cells, replicate 1: 4
RhoGAP1A [DRSC20649] | mitotic cells, replicate 1: 5
RhoGAP1A [DRSC20651] | mitotic cells, replicate 1: 10
Rpp21 [DRSC22480] | mitotic cells, replicate 1: 15
Rpp21 [DRSC29867] | mitotic cells, replicate 1: 6
Ance-4 [DRSC07104] | mitotic cells, replicate 1: 4
kek5 [DRSC19438] | mitotic cells, replicate 1: 7
kek5 [DRSC24470] | mitotic cells, replicate 1: 6
CG8519 [DRSC10985] | mitotic cells, replicate 1: 6
CG8519 [DRSC26203] | mitotic cells, replicate 1: 8
Gs2 [DRSC20250] | mitotic cells, replicate 1: 17
Gs2 [DRSC26818] | mitotic cells, replicate 1: 11
CG6938 [DRSC10752] | mitotic cells, replicate 1: 2
CG6938 [DRSC28621] | mitotic cells, replicate 1: 3
CAH7 [DRSC15524] | mitotic cells, replicate 1: 7
